The supplement of paper PMC10849652
The other results are listed elsewhere or left out.

Amino acid sequences for entries named in this document (tags omitted). A change or cut given only in a name is not applied to a line headed by its entry.
UniProt Q86VI4: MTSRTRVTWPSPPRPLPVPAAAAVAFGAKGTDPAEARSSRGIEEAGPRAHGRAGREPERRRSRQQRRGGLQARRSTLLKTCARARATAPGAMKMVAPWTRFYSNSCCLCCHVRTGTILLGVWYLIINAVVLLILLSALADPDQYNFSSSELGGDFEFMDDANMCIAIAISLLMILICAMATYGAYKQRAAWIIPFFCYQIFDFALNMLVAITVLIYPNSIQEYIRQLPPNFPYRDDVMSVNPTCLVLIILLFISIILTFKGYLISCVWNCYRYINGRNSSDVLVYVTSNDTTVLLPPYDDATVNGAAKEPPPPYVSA
UniProt Q9BT23: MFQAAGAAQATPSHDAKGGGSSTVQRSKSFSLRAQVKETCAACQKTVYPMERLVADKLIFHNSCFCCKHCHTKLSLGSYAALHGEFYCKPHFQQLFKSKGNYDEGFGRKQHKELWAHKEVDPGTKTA
UniProt Q6P5S2: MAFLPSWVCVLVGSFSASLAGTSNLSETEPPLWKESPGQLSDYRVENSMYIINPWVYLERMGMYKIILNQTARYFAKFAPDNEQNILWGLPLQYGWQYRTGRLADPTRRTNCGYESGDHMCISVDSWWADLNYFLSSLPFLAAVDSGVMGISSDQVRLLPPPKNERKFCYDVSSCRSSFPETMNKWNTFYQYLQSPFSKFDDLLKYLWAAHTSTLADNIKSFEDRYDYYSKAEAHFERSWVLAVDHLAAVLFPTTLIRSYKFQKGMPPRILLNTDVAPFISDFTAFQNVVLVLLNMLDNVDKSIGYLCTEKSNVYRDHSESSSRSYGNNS
UniProt P80188: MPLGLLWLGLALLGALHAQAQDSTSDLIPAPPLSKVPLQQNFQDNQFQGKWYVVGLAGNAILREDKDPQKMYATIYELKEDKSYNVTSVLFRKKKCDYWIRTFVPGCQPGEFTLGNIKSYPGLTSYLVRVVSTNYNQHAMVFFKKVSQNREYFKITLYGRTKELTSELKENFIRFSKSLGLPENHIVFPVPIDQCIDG
UniProt Q15048: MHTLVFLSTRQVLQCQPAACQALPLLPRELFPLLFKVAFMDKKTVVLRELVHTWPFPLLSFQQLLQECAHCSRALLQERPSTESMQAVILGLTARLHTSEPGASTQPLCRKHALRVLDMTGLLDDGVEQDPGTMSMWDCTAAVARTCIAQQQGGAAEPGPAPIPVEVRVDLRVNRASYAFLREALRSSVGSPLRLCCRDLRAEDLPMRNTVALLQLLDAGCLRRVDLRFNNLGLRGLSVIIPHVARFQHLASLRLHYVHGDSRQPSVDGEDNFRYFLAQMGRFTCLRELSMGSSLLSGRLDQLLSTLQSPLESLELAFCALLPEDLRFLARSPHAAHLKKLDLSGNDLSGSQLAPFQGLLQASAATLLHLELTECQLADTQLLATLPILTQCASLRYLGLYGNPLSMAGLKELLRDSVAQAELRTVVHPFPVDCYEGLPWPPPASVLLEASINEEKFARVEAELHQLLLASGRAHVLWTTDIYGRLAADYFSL
UniProt Q643R3: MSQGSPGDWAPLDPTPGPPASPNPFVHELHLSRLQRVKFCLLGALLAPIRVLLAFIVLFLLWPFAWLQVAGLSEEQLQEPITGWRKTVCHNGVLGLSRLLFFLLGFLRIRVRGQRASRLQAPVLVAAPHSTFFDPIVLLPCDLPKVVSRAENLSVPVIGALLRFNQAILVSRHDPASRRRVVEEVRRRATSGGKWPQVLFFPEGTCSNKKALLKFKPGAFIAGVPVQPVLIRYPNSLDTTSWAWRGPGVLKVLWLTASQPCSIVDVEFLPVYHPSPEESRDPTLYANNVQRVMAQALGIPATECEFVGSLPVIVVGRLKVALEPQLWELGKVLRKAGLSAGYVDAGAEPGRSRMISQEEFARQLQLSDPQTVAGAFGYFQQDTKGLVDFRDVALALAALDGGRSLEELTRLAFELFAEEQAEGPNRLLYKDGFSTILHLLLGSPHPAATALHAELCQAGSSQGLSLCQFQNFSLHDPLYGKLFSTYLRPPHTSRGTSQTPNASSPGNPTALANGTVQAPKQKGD
UniProt Q5SW96: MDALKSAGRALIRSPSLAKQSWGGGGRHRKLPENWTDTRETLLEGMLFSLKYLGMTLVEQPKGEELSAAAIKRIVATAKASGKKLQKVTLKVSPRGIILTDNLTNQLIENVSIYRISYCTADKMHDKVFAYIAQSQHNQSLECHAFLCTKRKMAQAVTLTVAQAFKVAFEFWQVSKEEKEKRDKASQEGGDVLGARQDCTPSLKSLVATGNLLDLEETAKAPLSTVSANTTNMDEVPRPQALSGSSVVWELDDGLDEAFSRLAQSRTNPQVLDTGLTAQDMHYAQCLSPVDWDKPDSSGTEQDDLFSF
UniProt Q6P1M3: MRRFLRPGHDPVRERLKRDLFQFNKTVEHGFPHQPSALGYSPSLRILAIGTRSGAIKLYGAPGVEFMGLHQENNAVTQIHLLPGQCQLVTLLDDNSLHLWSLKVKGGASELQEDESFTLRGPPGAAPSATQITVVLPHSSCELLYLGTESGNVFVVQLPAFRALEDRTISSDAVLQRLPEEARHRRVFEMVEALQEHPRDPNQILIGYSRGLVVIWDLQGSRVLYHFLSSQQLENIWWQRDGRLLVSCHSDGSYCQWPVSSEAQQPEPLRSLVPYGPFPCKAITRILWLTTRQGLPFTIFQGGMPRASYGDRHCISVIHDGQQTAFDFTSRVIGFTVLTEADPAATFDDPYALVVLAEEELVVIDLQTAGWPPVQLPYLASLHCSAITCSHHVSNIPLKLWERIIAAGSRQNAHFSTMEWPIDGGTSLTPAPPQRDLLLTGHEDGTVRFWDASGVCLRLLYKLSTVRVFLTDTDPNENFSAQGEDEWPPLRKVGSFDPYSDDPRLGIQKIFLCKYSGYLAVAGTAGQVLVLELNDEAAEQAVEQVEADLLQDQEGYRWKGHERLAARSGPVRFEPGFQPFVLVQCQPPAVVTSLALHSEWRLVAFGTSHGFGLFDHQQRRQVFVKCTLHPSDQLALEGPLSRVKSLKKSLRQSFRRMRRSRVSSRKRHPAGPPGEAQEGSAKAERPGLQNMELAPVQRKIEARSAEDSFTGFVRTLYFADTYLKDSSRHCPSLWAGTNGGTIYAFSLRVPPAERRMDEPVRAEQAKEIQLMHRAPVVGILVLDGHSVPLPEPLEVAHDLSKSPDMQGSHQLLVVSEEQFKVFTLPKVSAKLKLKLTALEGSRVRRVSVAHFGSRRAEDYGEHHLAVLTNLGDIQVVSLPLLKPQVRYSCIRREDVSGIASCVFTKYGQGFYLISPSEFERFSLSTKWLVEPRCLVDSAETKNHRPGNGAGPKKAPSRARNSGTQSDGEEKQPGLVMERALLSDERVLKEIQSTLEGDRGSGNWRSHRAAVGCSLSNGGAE
UniProt P13473: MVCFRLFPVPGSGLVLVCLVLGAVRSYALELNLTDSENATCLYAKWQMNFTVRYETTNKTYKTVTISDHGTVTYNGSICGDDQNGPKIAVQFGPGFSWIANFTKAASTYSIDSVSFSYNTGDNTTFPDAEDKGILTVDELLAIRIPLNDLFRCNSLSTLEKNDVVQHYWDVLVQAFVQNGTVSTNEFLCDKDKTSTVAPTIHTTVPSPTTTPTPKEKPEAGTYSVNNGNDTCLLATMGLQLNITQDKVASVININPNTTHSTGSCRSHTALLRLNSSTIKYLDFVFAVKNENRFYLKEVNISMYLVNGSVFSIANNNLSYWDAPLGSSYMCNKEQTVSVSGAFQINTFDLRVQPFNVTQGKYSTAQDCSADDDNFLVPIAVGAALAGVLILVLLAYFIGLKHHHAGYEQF
UniProt O75197: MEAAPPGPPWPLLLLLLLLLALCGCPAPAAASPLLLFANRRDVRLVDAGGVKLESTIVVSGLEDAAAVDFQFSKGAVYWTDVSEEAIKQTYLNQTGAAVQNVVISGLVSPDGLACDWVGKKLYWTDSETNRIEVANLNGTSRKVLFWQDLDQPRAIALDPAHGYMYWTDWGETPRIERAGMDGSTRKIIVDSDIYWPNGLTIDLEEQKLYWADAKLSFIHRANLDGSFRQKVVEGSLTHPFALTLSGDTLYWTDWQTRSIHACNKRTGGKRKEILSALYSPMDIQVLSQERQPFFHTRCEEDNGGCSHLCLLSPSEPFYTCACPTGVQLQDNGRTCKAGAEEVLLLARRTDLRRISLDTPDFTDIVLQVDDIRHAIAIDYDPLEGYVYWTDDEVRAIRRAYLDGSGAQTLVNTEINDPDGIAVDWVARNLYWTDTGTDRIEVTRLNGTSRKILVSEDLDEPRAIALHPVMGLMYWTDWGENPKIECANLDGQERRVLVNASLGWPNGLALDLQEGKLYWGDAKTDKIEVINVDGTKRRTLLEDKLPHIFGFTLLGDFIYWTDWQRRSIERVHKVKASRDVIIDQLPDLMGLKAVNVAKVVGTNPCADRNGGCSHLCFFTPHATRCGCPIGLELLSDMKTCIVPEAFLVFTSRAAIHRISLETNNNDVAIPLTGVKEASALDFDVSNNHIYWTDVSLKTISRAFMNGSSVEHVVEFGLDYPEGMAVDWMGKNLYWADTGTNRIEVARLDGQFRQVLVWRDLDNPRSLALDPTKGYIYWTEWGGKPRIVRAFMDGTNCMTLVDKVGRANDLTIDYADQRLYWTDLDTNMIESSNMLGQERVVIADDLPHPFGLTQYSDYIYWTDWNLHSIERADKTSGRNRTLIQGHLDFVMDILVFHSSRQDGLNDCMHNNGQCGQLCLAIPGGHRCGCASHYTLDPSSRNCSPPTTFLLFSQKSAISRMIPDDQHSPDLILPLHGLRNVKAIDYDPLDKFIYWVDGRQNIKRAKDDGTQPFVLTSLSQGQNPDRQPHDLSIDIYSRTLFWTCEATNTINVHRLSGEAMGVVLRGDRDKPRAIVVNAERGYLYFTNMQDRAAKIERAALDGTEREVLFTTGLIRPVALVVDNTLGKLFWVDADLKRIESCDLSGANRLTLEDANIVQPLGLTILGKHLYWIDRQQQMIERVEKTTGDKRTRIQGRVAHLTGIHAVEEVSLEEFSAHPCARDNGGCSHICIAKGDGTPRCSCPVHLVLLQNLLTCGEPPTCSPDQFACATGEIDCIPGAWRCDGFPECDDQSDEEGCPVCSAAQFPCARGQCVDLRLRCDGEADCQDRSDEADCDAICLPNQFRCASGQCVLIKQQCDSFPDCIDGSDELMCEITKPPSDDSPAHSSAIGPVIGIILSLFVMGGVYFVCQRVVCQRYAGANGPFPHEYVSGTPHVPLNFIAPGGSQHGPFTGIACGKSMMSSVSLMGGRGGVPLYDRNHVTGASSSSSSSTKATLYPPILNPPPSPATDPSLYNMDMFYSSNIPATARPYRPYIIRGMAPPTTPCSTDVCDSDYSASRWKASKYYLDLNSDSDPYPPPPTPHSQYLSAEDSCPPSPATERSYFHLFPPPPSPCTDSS
UniProt O15243: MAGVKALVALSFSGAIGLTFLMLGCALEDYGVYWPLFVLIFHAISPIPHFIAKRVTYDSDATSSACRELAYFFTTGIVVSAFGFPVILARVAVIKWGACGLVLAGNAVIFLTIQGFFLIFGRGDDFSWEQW
UniProt Q53QV2: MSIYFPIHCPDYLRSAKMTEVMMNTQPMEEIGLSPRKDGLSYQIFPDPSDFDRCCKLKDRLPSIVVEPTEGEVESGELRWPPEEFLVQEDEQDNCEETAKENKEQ
UniProt Q08380: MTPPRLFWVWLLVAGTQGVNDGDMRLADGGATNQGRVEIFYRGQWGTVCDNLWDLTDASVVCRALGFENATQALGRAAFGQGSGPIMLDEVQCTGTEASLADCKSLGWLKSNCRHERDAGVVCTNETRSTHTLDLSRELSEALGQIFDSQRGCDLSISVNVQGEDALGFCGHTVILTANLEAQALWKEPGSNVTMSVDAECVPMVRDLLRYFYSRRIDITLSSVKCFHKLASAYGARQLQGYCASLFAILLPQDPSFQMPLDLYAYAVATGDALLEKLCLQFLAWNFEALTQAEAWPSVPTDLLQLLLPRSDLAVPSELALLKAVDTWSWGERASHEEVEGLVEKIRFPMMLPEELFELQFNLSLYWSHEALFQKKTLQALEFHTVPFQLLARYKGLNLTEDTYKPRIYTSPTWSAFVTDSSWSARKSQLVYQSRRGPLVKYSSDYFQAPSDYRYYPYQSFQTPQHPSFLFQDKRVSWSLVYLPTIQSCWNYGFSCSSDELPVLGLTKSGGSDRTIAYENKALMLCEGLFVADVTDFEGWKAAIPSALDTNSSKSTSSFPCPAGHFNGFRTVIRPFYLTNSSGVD
UniProt Q9Y546: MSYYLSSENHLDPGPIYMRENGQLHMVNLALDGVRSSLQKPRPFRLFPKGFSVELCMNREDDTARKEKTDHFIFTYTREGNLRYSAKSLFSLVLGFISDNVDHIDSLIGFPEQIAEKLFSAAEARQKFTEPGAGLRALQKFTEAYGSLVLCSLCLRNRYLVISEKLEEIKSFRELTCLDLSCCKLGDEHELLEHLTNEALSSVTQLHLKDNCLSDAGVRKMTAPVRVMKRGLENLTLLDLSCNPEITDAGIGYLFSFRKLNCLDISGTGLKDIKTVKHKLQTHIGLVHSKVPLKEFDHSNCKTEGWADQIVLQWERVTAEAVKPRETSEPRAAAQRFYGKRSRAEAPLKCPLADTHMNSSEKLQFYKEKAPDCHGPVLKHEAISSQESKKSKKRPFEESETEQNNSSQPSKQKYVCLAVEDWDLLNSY

These targets were tested with CS(=O)(=O)c1ccc(-c2cnc(N)c(C(=O)Nc3ccccc3)n2)cc1 (assay: log2 fold change, soluble protein after heating vs DMSO (PISA); higher = thermal stabilisation; K562 cells, 10 uM, 30 min; active = over 0.2 and 3.5 SD of the protein, either way, in both replicates (recomputed)).
Method in brief: (§1)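 For each measurement, 10 μM compound was applied for 30 min to K562 cells at 2×10^6 cells/mL. Aliquots were heated for 3 min across 48°C-58°C, pooled, and extracted in PBS with 0.5% NP-40 at 4°C; the supernatant after 21,000xg for 90 min was soluble protein. This was quantified by TMTpro 16plex LC-MS/MS with channel sums equalised, and thermal stability was reported relative to control samples from duplicates, on a log2 fold-change scale.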

Row | Target | log2 fold change
1 | LARP1B, A0A3B3ISF0 | inactive: 0.095
2 | LIG4 (UniProt P49917) | inactive: 0.095
3 | LAPTM4B (UniProt Q86VI4) | inactive: 0.012
4 | LIMD2 (UniProt Q9BT23) | inactive: 0.059
5 | LIG3 (UniProt P49916) | inactive: -0.01
6 | LEG1 (UniProt Q6P5S2) | inactive: -0.028
7 | LCN2 isoform 2 (UniProt P80188) | inactive: -0.178

These targets were tested with C[C@@H](Oc1cc(-c2cnn(C3CCNCC3)c2)cnc1N)c1c(Cl)ccc(F)c1Cl [crizotinib] in the same assay as above.
Method in brief: as §1

Row | Target | log2 fold change
8 | LGALSL (UniProt Q3ZCW2) | inactive: -0.139
9 | LMO4 (UniProt P61968) | inactive: 0.003
10 | LRRC14 (UniProt Q15048) | inactive: -0.026
11 | LIMS1 (UniProt P48059) | inactive: 0.003
12 | LPCAT4 (UniProt Q643R3) | inactive: -0.092
13 | LEPROTL1 isoform 2 (UniProt O95214) | inactive: -0.165
14 | L1TD1 (UniProt Q5T7N2) | inactive: -0.121
15 | LDLRAP1 (UniProt Q5SW96) | inactive: 0.004
16 | LLGL2 (UniProt Q6P1M3) | inactive: 0
17 | LAMP2 isoform 2 (UniProt P13473) | active: -0.424

The targets below were run with C[C@@H]1COCCN1C2=NC(=NC(=C2)C3(CC3)S(=O)(=O)C)C4=C5C=CNC5=CC=C4 in the same assay as above.
Method in brief: as §1

Row | Target | log2 fold change
18 | LRP5 (UniProt O75197) | inactive: -0.014
19 | LEPROT (UniProt O15243) | inactive: -0.149
20 | LRP1 (UniProt Q07954) | inactive: 0.205
21 | LPCAT4 (UniProt Q643R3) | inactive: -0.147
22 | LBH (UniProt Q53QV2) | inactive: 0.161
23 | LOR (UniProt P23490) | inactive: -0.415
24 | KXD1 (UniProt Q9BQD3) | inactive: 0.118
25 | LHFPL2 (UniProt Q6ZUX7) | inactive: 0.063
26 | LLGL2 (UniProt Q6P1M3) | inactive: -0.067
27 | LMLN isoform 3 (UniProt Q96KR4) | inactive: -0.033
28 | LGALS3BP (UniProt Q08380) | inactive: 0.028
29 | LAMA5 (UniProt O15230) | inactive: -0.239
30 | LAMP2 isoform 2 (UniProt P13473) | inactive: 0.119

The targets below were run with C[C@H](C1=CC=C(C=C1)C(=O)NC2=C3C=CNC3=NC=C2)N in the same assay as above.
Method in brief: as §1

Row | Target | log2 fold change
31 | LRP5 (UniProt O75197) | inactive: -0.028
32 | LMO4 (UniProt P61968) | inactive: -0.022
33 | LIMS1 isoform 5 (UniProt P48059) | inactive: 0.089
34 | LEPROT (UniProt O15243) | inactive: 0.083
35 | LPCAT4 (UniProt Q643R3) | inactive: 0.286
36 | LEPROTL1 isoform 2 (UniProt O95214) | inactive: -0.046
37 | LIMD2 (UniProt Q9BT23) | inactive: -0.117
38 | LIG3 (UniProt P49916) | inactive: 0.326
39 | LAMA2 (UniProt P24043) | inactive: 0.49
40 | LDHD (UniProt Q86WU2) | inactive: 0.338
41 | LEG1 (UniProt Q6P5S2) | inactive: 0.257
42 | L1TD1 (UniProt Q5T7N2) | inactive: 0.217
43 | KXD1 (UniProt Q9BQD3) | inactive: -0.009
44 | LLGL2 (UniProt Q6P1M3) | inactive: 0.309
45 | LBHD1 (UniProt Q9BQE6) | inactive: 0.058
46 | LAMA5 (UniProt O15230) | inactive: -0.043
47 | LRRC42 (UniProt Q9Y546) | inactive: 0.206
48 | LAMP2 isoform 2 (UniProt P13473) | inactive: -0.051
49 | LAPTM5 (UniProt Q13571) | inactive: 0.043
